Measured values published in the supplement of paper PMC12067093, “Discovery and optimisation of a covalent ligand for TRIM25 and its application to targeted protein ubiquitination” (Chemical Science, 2025).
The other results are listed elsewhere or left out.

Compound: CC1Cc2ccccc2N1C(=O)C1CCCN(C1)C(=O)CCl (mixture of isomers) [TRIM25 ligand 11 (diastereomer mixture)]
Experiment: probe-labelled cysteine peptide fold change vs DMSO (competition) (log2 fold change); higher = less target engagement (more negative = stronger competition)
Settings: THP-1, incubation time: 4 h
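Also: competitive chemoproteomic profiling in live THP-1 cells with an iodoacetamide desthiobiotin (IA-DTB) probe, comparing probe-labelled peptide intensities in compound-treated cells against DMSO-treated controls.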

| Target | probe-labelled cysteine peptide fold change (10 µM) | probe-labelled cysteine peptide fold change (50 µM) |
| --- | --- | --- |
| ELP1_O95163_820_IDLVCDAMR (UniProt O95163) | 0.425 | 0.197 |
| ELF2_Q15723_591_TEGLVTCEK (UniProt Q15723) | -0.0654 | -0.271 |
| ELP4_Q96EB1_361_LNNLICDESDVK (UniProt Q96EB1) | 0.196 | 0.0194 |
| EIF4G2_P78344_97_LCLELLNVGVESK (UniProt P78344) | -0.155 | 0.0844 |
| EPM2A_B3EWF7_192_RRASRAFCPR (UniProt B3EWF7) | -0.0876 | 0.0336 |
| ENOPH1_Q9UHY7_202_IADSIGCSTNNILFLTDVTR (UniProt Q9UHY7) | 0.266 | 0.219 |
| EPRS_P07814_350_IDMSSNNGCMR (UniProt P07814) | 0.0529 | -0.142 |
| EMC8_O43402_153_CRDPHHDYCEDWPEAQR (UniProt O43402) | 0.307 | 0.192 |
| ENOPH1_Q9UHY7_202_KIADSIGCSTNNILFLTDVTR (UniProt Q9UHY7) | -0.259 | -0.405 |
| ELOF1_P60002_26+29_MTGTLETQFTCPFCNHEK (UniProt P60002) | -0.14 | -0.278 |
| EPHX2_P34913_232_VTGIQLLNTPAPLPTSCNPSDMSHGYVTVKPR (UniProt P34913) | 0.149 | -0.204 |
| EPRS_P07814_105_LSSCDSFTSTINELNHCLSLR (UniProt P07814) | 0.47 | 0.288 |
| EIF3I_Q13347_120_QMGYQCFVSFFDLR (UniProt Q13347) | 0.312 | 0.251 |
| EMG1_Q92979_171_NPVSDHFPVGCMK (UniProt Q92979) | 0.0789 | -0.0589 |
| ELANE_P08246_198_QAGVCFGDSGSPLVCNGLIHGIASFVR (UniProt P08246) | 0.0896 | 0.126 |
| ELP2_Q6IA86_572_LYGHGYEIFCVTCNSSK (UniProt Q6IA86) | 0.0517 | 0.205 |
| ELOF1_P60002_29_MTGTLETQFTCPFCNHEK (UniProt P60002) | -0.299 | -0.257 |
| EML3_Q32P44_420_DSSCIVTSGK (UniProt Q32P44) | -0.000308 | 0.0483 |
| ERAP1_Q9NZ08_193_MAFPCFDEPAFK (UniProt Q9NZ08) | -0.0411 | -0.159 |
| EIPR1_Q53HC9_247_QYYLASCGDDCK (UniProt Q53HC9) | 0.03 | -0.158 |
| EIF3D_O15371_438_WTCCALLAGSEYLK (UniProt O15371) | -0.0143 | 0.0445 |

| Target | probe-labelled cysteine peptide fold change (10 µM) | probe-labelled cysteine peptide fold change (50 µM) |
| --- | --- | --- |
| ELP4_Q96EB1_412_LGPGCGMMAGGK (UniProt Q96EB1) | -0.091 | -0.264 |
| EPRS_P07814_856_INEAVECLLSLK (UniProt P07814) | -0.0867 | -0.176 |
| EIF4G3_O43432_928_NHDEESLECLCR (UniProt O43432) | 0.179 | 0.171 |
| EPRS_P07814_660_HEELMLGDPCLK (UniProt P07814) | -0.0463 | -0.186 |
| ELMO1_Q92556_726_EPSNYDFVYDCN (UniProt Q92556) | -0.0695 | -0.194 |
| ELMO1_Q92556_438_VGELPSETCNDFHPMFFTHDR (UniProt Q92556) | 0.456 | 0.00269 |
| EIF4A2_Q14240_132+135_VILALGDYMGATCHACIGGTNVR (UniProt Q14240) | -0.177 | 0.0633 |
| ELMO1_Q92556_411_EDKHECPFGR (UniProt Q92556) | -0.0619 | -0.114 |
| EIF4G1_Q04637_662_LQGINCGPDFTPSFANLGR (UniProt Q04637) | -0.251 | -0.298 |
| ENO1_P06733_339_SCNCLLLK (UniProt P06733) | 0.00409 | 0.0482 |
| ELOB_Q15370_60_TLGECGFTSQTAR (UniProt Q15370) | 0.0672 | -0.0666 |
| ELMSAN1_Q6PJG2_442_AVSTGDCGQVLR (UniProt Q6PJG2) | -0.202 | -0.175 |
| EPRS_P07814_123_TYLVGNSLSLADLCVWATLK (UniProt P07814) | -0.0118 | 0.0163 |
| ELP1_O95163_23_DIQGPGNPQCFSLR (UniProt O95163) | 0.0812 | 0.0183 |
| ELMO2_Q96JJ3_550_LCEGSSFR (UniProt Q96JJ3) | -0.0079 | -0.0672 |
| ELAC1_Q9H777_266_LCFEADLLIHEATLDDAQMDK (UniProt Q9H777) | -0.0858 | 0.0139 |
| EPRS_P07814_92_LSSCDSFTSTINELNHCLSLR (UniProt P07814) | 0.208 | -0.0304 |
| EMC9_Q9Y3B6_177_AHQHLVDFDCHLDDIR (UniProt Q9Y3B6) | 0.069 | -0.124 |
| EMC1_Q8N766_587_TTAHFPHPPQCTLLVK (UniProt Q8N766) | -0.19 | 0.0174 |
| ELAC2_Q9BQ52_670_VVYSGDTMPCEALVR (UniProt Q9BQ52) | 0.0718 | -0.0613 |
| EIF3M_Q7L2H7_52_GAEISEENSEGGLHVDLAQIIEACDVCLKEDDK (UniProt Q7L2H7) | 0.0157 | 0.134 |

Single values from above.
Value of EPHX2_P34913_232_VTGIQLLNTPAPLPTSCNPSDMSHGYVTVKPR (UniProt P34913) under probe-labelled cysteine peptide fold change (50 µM): -0.204
Value of EML3_Q32P44_420_DSSCIVTSGK (UniProt Q32P44) under probe-labelled cysteine peptide fold change (10 µM): -0.000308
Value of ELP4_Q96EB1_412_LGPGCGMMAGGK (UniProt Q96EB1) under probe-labelled cysteine peptide fold change (50 µM): -0.264
Value of EPRS_P07814_123_TYLVGNSLSLADLCVWATLK (UniProt P07814) under probe-labelled cysteine peptide fold change (10 µM): -0.0118
Value of EIF4A2_Q14240_132+135_VILALGDYMGATCHACIGGTNVR (UniProt Q14240) under probe-labelled cysteine peptide fold change (10 µM): -0.177
Value of ELP2_Q6IA86_572_LYGHGYEIFCVTCNSSK (UniProt Q6IA86) under probe-labelled cysteine peptide fold change (10 µM): 0.0517

Remaining list, next part

| Target | probe-labelled cysteine peptide fold change (10 µM) | probe-labelled cysteine peptide fold change (50 µM) |
| --- | --- | --- |
| EPG5_Q9HCE0_1586_QYVNREEQTTLHLECR (UniProt Q9HCE0) | 0.148 | 0.0575 |
| EIF4A3_P38919_137_GLLALGDYMNVQCHACIGGTNVGEDIR (UniProt P38919) | -0.194 | -0.0413 |
| EPHX2_P34913_71_GEITLSQWIPLMEENCR (UniProt P34913) | 0.049 | -0.317 |
| ELAC2_Q9BQ52_640_TCDLEEFQTCLVR (UniProt Q9BQ52) | 0.0319 | -0.00113 |
| EIF5B_O60841_1158_KGQEVCVK (UniProt O60841) | 0.00815 | -0.0195 |
| EIF3B_P55884_384_FSHQGVQLIDFSPCER (UniProt P55884) | -0.039 | 0.0236 |
| ENG_P17813_582_LNIISPDLSGCTSK (UniProt P17813) | -0.0335 | -0.124 |
| ELANE_P08246_254_SEDNPCPHPRDPDPASR (UniProt P08246) | -0.0641 | -0.14 |
| EML2_O95834_163_AVCCVGFSK (UniProt O95834) | 0.146 | 0.348 |
| EPRS_P07814_1448+1453_IVQIPFCGEIDCEDWIK (UniProt P07814) | 0.0922 | -0.0905 |
| ELANE_P08246_254_SEDNPCPHPR (UniProt P08246) | -0.0328 | -0.0765 |
| EPRS_P07814_623_VTWLAETTHALPIPVICVTYEHLITKPVLGKDEDFK (UniProt P07814) | -0.0188 | 0.0185 |
| ENO1_P06733_337_SCNCLLLK (UniProt P06733) | -0.0518 | 0.0457 |
| ELP1_O95163_414_QTVVPPPMCTYQLLFPHPVNQVTFLAHPQK (UniProt O95163) | -0.0615 | -0.0736 |
| EPG5_Q9HCE0_318_QLLLAEAELLTLTSDCQNAK (UniProt Q9HCE0) | 0.102 | 0.144 |
| EML4_Q9HC35_82_AVIPMSCITNGSGANR (UniProt Q9HC35) | -0.091 | -0.304 |
| ELMOD2_Q8IZ81_285_GLLLDCNVALTLK (UniProt Q8IZ81) | 0.285 | 0.319 |
| EIF4A3_P38919_140_GLLALGDYMNVQCHACIGGTNVGEDIRK (UniProt P38919) | -0.0111 | 0.12 |
| EIF3M_Q7L2H7_134_VAASCGAIQYIPTELDQVRK (UniProt Q7L2H7) | 0.217 | 0.402 |
| EIF3M_Q7L2H7_175_LLYEALVDCK (UniProt Q7L2H7) | 0.13 | 0.226 |
| EPC1_Q9H2F5_135_KMDICPLQFEEMIDRLEK (UniProt Q9H2F5) | -0.115 | -0.0254 |

| Target | probe-labelled cysteine peptide fold change (10 µM) | probe-labelled cysteine peptide fold change (50 µM) |
| --- | --- | --- |
| EIF4A1_P60842_131_VVMALGDYMGASCHACIGGTNVR (UniProt P60842) | 0.218 | -0.0548 |
| EPB41L1_Q9H4G0_111_VTLLDASEYECEVEK (UniProt Q9H4G0) | -0.0627 | 0.0483 |
| EIF3F_O00303_134_HSVEVTNCFSVPHNESEDEVAVDMEFAK (UniProt O00303) | 0.0611 | -0.0526 |
| EPHX1_P07099_182_NHGLSDEHVFEVICPSIPGYGFSEASSK (UniProt P07099) | 0.0234 | 0.0755 |
| EIF4G3_O43432_928+930_NHDEESLECLCR (UniProt O43432) | 0.099 | -0.0352 |
| EIF5_P55010_99_FVLCPECENPETDLHVNPK (UniProt P55010) | -0.0189 | 0.0537 |
| EML3_Q32P44_615_FLTCGHDR (UniProt Q32P44) | -0.0229 | -0.0267 |
| EPRS_P07814_744_ERPTPSLNNNCTTSEDSLVLYNR (UniProt P07814) | 0.0165 | -0.00714 |
| ELF2_Q15723_110_TIEAAEALLHMESPTCLR (UniProt Q15723) | -0.0447 | -0.346 |
| ENY2_Q9NPA8_40_LIECGWK (UniProt Q9NPA8) | -0.0641 | 0.103 |
| ELP2_Q6IA86_572+575_LYGHGYEIFCVTCNSSK (UniProt Q6IA86) | 0.0985 | 0.132 |
| EIPR1_Q53HC9_198_WSPHHNCTQVATANDTTLR (UniProt Q53HC9) | -0.031 | -0.16 |
| EMC8_O43402_136_FTMDCVAPTIHVYEHHENR (UniProt O43402) | -0.0913 | -0.0277 |
| EPC1_Q9H2F5_22_CEDLPDLHEYASINR (UniProt Q9H2F5) | -0.132 | -0.266 |
| EIF5A2_Q9GZV4_22_ADEIDFTTGDAGASSTYPMQCSALRK (UniProt Q9GZV4) | -0.201 | -0.216 |
| EIF4G1_Q04637_1516_YLCDEQK (UniProt Q04637) | 0.0853 | 0.0855 |
| EIF3G_O75821_25_CVTSELLK (UniProt O75821) | -0.00799 | -0.148 |
| EML3_Q32P44_816_VVAVADDFCK (UniProt Q32P44) | -0.0576 | -0.0482 |
| EP300_Q09472_1247_RKNDTLDPELFVECTECGR (UniProt Q09472) | 0.0495 | -0.131 |
| ENOSF1_Q7L5Y1_307_ALVPLGIGIATGEQCHNR (UniProt Q7L5Y1) | -0.156 | -0.317 |
